Consider two molecules from paper PMC4858382.

Chains of the proteins cited; added tags and fusions are not shown.
UniProt Q9P209: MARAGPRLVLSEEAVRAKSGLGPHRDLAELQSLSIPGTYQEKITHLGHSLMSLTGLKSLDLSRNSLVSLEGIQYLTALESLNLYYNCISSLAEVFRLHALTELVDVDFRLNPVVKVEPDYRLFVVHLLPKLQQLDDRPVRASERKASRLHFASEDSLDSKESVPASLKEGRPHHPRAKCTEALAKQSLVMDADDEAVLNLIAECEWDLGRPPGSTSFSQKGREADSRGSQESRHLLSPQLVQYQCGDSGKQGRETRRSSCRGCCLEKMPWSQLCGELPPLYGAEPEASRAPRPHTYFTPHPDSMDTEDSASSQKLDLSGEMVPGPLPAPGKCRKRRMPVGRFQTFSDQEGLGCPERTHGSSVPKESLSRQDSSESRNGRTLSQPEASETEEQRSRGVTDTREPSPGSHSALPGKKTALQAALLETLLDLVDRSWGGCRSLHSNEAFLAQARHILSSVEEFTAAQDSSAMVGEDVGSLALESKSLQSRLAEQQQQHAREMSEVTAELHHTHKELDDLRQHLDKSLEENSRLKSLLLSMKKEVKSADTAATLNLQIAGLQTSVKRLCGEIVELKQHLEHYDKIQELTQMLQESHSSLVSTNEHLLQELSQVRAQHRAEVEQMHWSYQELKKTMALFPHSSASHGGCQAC

Assay [1] deals with T1, Myc-mPCM1 fragment containing residues 601–2025 (mouse) (UniProt Q9R0L6).
T1 sequence: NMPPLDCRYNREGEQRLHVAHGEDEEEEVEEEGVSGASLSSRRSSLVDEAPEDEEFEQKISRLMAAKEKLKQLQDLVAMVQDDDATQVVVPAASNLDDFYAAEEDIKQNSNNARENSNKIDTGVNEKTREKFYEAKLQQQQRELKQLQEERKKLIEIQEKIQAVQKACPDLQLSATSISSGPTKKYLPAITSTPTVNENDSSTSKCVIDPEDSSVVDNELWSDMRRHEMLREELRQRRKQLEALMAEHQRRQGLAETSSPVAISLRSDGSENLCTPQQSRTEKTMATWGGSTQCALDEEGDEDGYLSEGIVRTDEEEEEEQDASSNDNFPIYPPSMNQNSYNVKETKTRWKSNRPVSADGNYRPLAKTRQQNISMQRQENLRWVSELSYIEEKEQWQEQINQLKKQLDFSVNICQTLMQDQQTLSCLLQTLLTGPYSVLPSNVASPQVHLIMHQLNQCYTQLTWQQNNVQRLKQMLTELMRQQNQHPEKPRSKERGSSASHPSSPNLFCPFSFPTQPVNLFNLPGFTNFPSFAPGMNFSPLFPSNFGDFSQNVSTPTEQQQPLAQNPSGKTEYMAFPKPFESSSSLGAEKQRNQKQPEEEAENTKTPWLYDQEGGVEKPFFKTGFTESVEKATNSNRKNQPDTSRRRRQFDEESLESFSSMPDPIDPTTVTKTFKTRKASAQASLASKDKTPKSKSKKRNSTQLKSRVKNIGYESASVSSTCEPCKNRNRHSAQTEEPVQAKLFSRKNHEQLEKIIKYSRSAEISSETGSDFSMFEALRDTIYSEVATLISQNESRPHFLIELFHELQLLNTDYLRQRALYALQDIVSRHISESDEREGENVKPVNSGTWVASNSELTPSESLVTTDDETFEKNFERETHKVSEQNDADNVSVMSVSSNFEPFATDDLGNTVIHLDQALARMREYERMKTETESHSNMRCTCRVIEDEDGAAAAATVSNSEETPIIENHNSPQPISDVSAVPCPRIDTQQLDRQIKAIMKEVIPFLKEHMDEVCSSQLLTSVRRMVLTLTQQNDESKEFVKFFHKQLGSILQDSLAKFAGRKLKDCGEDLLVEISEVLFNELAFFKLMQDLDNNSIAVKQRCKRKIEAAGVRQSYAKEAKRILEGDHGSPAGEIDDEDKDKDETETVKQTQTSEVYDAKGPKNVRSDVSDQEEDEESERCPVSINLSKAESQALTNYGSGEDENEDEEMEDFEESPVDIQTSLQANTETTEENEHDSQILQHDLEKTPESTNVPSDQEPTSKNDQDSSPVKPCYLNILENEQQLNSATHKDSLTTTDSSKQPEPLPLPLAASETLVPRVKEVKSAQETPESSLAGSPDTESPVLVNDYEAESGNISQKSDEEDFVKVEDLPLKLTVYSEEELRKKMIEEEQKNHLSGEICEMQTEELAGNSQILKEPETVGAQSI
Nature of the assay: co-IP; HEK293T transfected with Myc-mPCM1 fragments for 48 h; lysates in ELB buffer (50 mM Hepes pH 7, 150 mM NaCl, 5 mM EDTA, 0.1% NP-40); anti-Myc antibody on Protein G Sepharose, 4°C; western blot for endogenous satellite proteins. On the technique in general: Immunoblotting shows a protein as a band on a membrane.

For assay [2], the target named is T2, Myc-mPCM1 fragment 1–800 (mouse) (UniProt Q9R0L6).
T2 sequence: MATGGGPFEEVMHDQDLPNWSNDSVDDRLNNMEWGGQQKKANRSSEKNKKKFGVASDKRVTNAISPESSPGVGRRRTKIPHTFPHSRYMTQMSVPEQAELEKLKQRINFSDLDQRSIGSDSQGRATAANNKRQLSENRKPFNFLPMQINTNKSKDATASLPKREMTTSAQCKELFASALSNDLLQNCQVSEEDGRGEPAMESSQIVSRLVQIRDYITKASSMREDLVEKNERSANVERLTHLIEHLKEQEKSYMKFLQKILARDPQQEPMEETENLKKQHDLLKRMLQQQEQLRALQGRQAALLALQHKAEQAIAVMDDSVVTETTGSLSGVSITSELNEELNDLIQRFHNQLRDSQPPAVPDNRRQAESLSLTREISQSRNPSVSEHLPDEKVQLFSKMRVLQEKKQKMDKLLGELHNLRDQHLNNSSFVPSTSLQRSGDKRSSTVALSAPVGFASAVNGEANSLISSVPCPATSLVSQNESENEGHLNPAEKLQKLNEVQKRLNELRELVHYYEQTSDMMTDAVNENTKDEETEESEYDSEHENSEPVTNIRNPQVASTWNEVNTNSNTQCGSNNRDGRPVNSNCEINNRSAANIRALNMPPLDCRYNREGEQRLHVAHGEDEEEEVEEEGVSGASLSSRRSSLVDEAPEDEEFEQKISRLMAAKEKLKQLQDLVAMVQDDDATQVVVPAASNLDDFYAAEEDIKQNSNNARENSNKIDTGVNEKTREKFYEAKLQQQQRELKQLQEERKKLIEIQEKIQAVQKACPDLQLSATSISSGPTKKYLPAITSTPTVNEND
Described as above.

These are yes or no findings as the source states them, for the method shown. Binding seen in cells or lysates may run through a third protein. Tags and fused reporters may be left off the sequences shown.

Take “Cep72, endogenous (from UniProt Q9P209 1-647)”: in assay [1], the binding result is reported as “no binding”.

B1: AZI1/Cep131, endogenous (protein, UniProt Q9UPN4 1-1083)
chain: MKGTRAIGSVPERSPAGVDLSLTGLPPPVSRRPGSAATTKPIVRSVSVVTGSEQKRKVLEATGPGGSQAINNLRRSNSTTQVSQPRSGSPRPTEPTDFLMLFEGSPSGKKRPASLSTAPSEKGATWNVLDDQPRGFTLPSNARSSSALDSPAGPRRKECTVALAPNFTANNRSNKGAVGNCVTTMVHNRYTPSERAPPLKSSNQTAPSLNNIIKAATCEGSESSGFGKLPKNVSSATHSARNNTGGSTGLPRRKEVTEEEAERFIHQVNQATVTIQRWYRHQVQRRGAGAARLEHLLQAKREEQRQRSGEGTLLDLHQQKEAARRKAREEKARQARRAAIQELQQKRALRAQKASTAERGPPENPRETRVPGMRQPAQELSPTPGGTAHQALKANNTGGGLPAAGPGDRCLPTSDSSPEPQQPPEDRTQDVLAQDAAGDNLEMMAPSRGSAKSRGPLEELLHTLQLLEKEPDVLPRPRTHHRGRYAWASEVTTEDDASSLTADNLEKFGKLSAFPEPPEDGTLLSEAKLQSIMSFLDEMEKSGQDQLDSQQEGWVPEAGPGPLELGSEVSTSVMRLKLEVEEKKQAMLLLQRALAQQRDLTARRVKETEKALSRQLQRQREHYEATIQRHLAFIDQLIEDKKVLSEKCEAVVAELKQEDQRCTERVAQAQAQHELEIKKLKELMSATEKARREKWISEKTKKIKEVTVRGLEPEIQKLIARHKQEVRRLKSLHEAELLQSDERASQRCLRQAEELREQLEREKEALGQQERERARQRFQQHLEQEQWALQQQRQRLYSEVAEERERLGQQAARQRAELEELRQQLEESSSALTRALRAEFEKGREEQERRHQMELNTLKQQLELERQAWEAGRTRKEEAWLLNREQELREEIRKGRDKEIELVIHRLEADMALAKEESEKAAESRIKRLRDKYEAELSELEQSERKLQERCSELKGQLGEAEGENLRLQGLVRQKERALEDAQAVNEQLSSERSNLAQVIRQEFEDRLAASEEETRQAKAELATLQARQQLELEEVHRRVKTALARKEEAVSSLRTQHEAAVKRADHLEELLEQHRRPTPSTK
Take B1: the binding entry in assay [2] is reported as “no binding”.
